# Source: PubChem BioAssay AID1259354 (Paczesny and Yang Labs, IUPUI and University of Michigan, 2018)
# Amino acid sequences for entries named in this document (tags omitted). A change or cut given only in a name is not applied to a line headed by its entry.
# UniProt Q01638: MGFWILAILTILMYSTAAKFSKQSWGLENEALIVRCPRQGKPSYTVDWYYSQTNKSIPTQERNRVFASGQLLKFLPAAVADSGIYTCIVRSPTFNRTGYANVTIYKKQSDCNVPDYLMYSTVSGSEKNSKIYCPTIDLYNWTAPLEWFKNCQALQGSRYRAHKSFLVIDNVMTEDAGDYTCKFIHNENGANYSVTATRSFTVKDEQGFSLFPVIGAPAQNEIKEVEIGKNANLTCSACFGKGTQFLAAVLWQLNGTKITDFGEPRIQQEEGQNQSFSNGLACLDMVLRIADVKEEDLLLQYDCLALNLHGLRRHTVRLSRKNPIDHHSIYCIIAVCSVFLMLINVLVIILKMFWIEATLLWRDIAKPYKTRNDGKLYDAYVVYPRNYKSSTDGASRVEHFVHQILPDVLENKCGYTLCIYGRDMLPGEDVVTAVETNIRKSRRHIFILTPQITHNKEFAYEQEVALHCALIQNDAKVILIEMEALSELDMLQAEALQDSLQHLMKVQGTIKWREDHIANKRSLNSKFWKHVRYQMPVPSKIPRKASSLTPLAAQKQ
# “And” between values parts separate entries of the source, which are not always exact repeats. Identical values can stand only once. Screen size: about 78,000 compounds; about 1,800 (2.3%) were called active. Inconclusive means that the source gave no clear call. Such entries were picked first, then a sample of the others. Cut-off read from the data, not from the text of the source: active = inhibition above about 30%; inconclusive = mostly about 10% to 28%; inactive = weaker than that.
# Target: Interleukin-1 receptor-like 1 (Homo sapiens) (UniProt Q01638)
# Test: blocks human ST2 binding to IL-33, primary screen, biochemical, AlphaLISA (AID 1259354)
# Details: AlphaLISA ST2-Fc/biotin-IL-33 interaction, 1 h; at 17 µM, stronger effect = higher value
row,SMILES,inhibition
1,CC1=NN(c2ccc(Cl)c(Cl)c2)C(=O)/C1=C/c1ccco1,inconclusive: 11%
2,CC(C)NC(=O)CSc1nc(-c2ccc3c(c2)OCO3)nc2cc(=O)[nH]n12,inactive
3,O=C(c1ccc(F)c(F)c1)N1CCCC(N2CCN(c3cccc(Cl)c3)CC2)C1 (stereo not given),inactive
4,COc1ccccc1OCc1cc(C(=O)N2CCN(C)C[C@@H]2c2ccccc2)n[nH]1,inconclusive: 13%
5,Nc1c(C(=O)Nc2nccs2)sc2nc3c(cc12)CCCCC3,inconclusive: 17%
6,CC#CCN(Cc1ccco1)C(=O)c1cc(C)c(C)c(S(N)(=O)=O)c1,inactive
7,COc1ccc(S(=O)(=O)N2C[C@@H]3C[C@H](C2)c2ccc(NS(=O)(=O)c4cccs4)c(=O)n2C3)cc1,inconclusive: 19%
8,CCOC(=O)C1(CCc2ccccc2)CCN(C(=O)Nc2ccc(OC)c(Cl)c2)CC1,inconclusive: 17%
9,Cc1nnc([C@H]2CCN(Cc3ncc[nH]3)C2)o1,inconclusive: 16%
10,O=C(NCc1cccs1)c1cccn2c(=O)c3c4c(sc3nc12)CCCC4,inconclusive: 15%
11,Cn1c(=O)cc2c3c(c(Br)ccc31)C(=O)c1ccccc1-2,inactive
12,CC(=O)c1ccc2c(c1)C(O)C(C(C)(C)O)O2 (stereo not given),inconclusive: 22%
13,COc1cccc(NC(=O)c2cc3cc4ccc(OC)cc4nc3o2)c1,active: 38%
14,O=[N+]([O-])c1ccc2nn(-c3ccccc3)nc2c1,inactive
15,COc1ccc(Cl)cc1NC(=O)CCC1CCCN(C(=O)c2cc(C)on2)C1 (stereo not given),inconclusive: 16%
16,CCOC(=O)c1nn(CCc2scnc2C)c2c1CN(Cc1coc3ccccc3c1=O)CC2,inconclusive: 11%
17,O[C@@H]1C[C@@H](c2nc(-c3ccc4c(c3)OCO4)no2)N(CC2CC2)C1,inconclusive: 20%
18,Cc1ccc(NC(=O)C2CCN(C(=O)c3cccc(Cl)c3)CC2)cc1,inconclusive: 23%
19,CSc1cccc(CN(C(=O)c2cccn2C)C(C)C)c1,inactive
20,COCCn1cc(C(=O)N2CCCC2)c2c3ccccc3n(C)c2c1=O,inactive
21,Cn1c2c(c(=O)n(C)c1=O)CN(CCN1CCOCC1)CN2,inconclusive: 10%
22,CCC1C(=O)C(C)(C)C(=O)OC1c1cccc([N+](=O)[O-])c1 (stereo not given),inconclusive: 25%
23,CCN(CC)C(=O)N1CCC2(CC1)CN(Cc1cccc(C)n1)CCN2C,inconclusive: 23%
24,CCc1ccc(-c2c(-c3ccccc3)ncn2CCCO)nc1,inconclusive: 11%

row,SMILES,inhibition
1,CCCOc1ccc(C(O)=C2C(=O)C(=O)N(CCCN3CCOCC3)C2c2cccnc2)cc1 (stereo not given),inactive
2,CCCc1nc2nc[nH]n2c(=O)c1NC(=O)Nc1ccc2c(c1)OCO2,inactive
3,O=C(Nc1c2c(nn1-c1ccc(Cl)cc1)CSC2)c1ccc(Br)o1,inactive
4,O=C1c2ccccc2C(=O)N1CN(C(=O)c1ccccc1)c1ccc(F)cc1,active: 77%
5,CCOc1ccc(C2C(C#N)=C(N)OC3=C2C(=O)CC(C)(C)C3)cc1 (stereo not given),inconclusive: 12%
6,CCCCOc1ccc(C(=O)OC2CC(C)N(C)CC2C)cc1 (stereo not given),inconclusive: 12%
7,N#C/C(=C\c1ccccc1[N+](=O)[O-])c1nc(-c2ccc(Br)cc2)cs1,inconclusive: 25%
8,Brc1ccccc1-c1nnc(-c2ccncc2)o1,inactive
9,COc1ccc(CCC(=O)NCCc2cccc(Cl)c2)cc1,inactive
10,O=c1c2cnn(-c3ccccc3)c2ncn1Cc1cccnc1,inactive
11,COCc1[nH]nc2c1C(c1ccc(F)cc1)C(C#N)=C(N)O2 (stereo not given),inactive
12,COc1ccc(-c2nc3cnccn3c2NC2CCCC2)cc1,inactive
13,CCCCNS(=O)(=O)c1cccc2nonc12,inconclusive: 19%
14,CN1CCN2CCN(C(=O)c3cccc(-c4ncc[nH]4)c3)CC2C1 (stereo not given),inconclusive: 11%
15,COc1cccc(/C=c2\sc3nnc(-c4ccc(C)cc4)n3c2=O)c1,inactive
16,Cc1ccc(-c2nc(C(N)=O)c3c(n2)n(-c2ccc(C)c(C)c2)c(=O)n3Cc2ccccc2)c(C)c1,inactive
17,Cc1ccc(Nc2cc(C)nc(Nc3ccc(NC(=O)c4ccccc4C)cc3)n2)cc1,inactive
18,COc1ccc(NC(=O)c2ccoc2C)c(OC)c1,inconclusive: 15%
19,O=[N+]([O-])c1cc(C=Nc2ccc3nc(-c4ccc(F)cc4)[nH]c3c2)c(O)c([N+](=O)[O-])c1,inconclusive: 10%
20,Cc1ccccc1OCC(=O)N1N=C(c2ccc(Cl)cc2)CC1(O)C(F)(F)F (stereo not given),inconclusive: 15%
21,COc1ccc(Cl)cc1/C=C1\N=C(SC)SC1=O,inconclusive: 12%
22,O=S(=O)(NCc1ccccc1)N1CCCC(c2nc3ccccc3o2)C1 (stereo not given),inconclusive: 10%
23,Cc1ccc(-n2c(SCC(N)=O)nc3c(c2=O)SCC3)cc1,inconclusive: 11%
24,Cc1ccc(NC(=O)/C=C/c2ccc3c(c2)OCO3)c(Br)c1,inconclusive: 18%

row,SMILES,inhibition
1,O=C(CSc1nc2ccccc2c(=O)n1-c1ccccc1)c1cccs1,inactive
2,CN1CCN(C(=O)c2cc3c(-c4ccc(Cl)cc4)nn(C)c3s2)CC1,inconclusive: 11%
3,CC(C)c1c(C#N)c(N)nc(SCC(=O)c2ccc(Cl)c(Cl)c2)c1C#N,inconclusive: 11%
4,Nc1c(C(=O)Nc2ccccc2)sc2ncc3cc4ccccc4nc3c12,inconclusive: 23%
5,CC1c2cccn2CCN1C(=O)Cc1nc(-c2cccnc2)n[nH]1 (stereo not given),inconclusive: 19%
6,COc1ccc(C2=NN(CN3C(=O)C(=O)c4ccccc43)C(c3ccc(C)cc3)C2)cc1 (stereo not given),active: 43%
7,O=C1C2C3C=CC(C3)C2C(=O)N1c1ccc(Cl)c(F)c1 (stereo not given),inactive
8,CC(C)C(=O)Nc1nc(-c2ccc(F)cc2)cs1,inconclusive: 10%
9,CC1=NN(c2ccccc2)C(=O)/C1=C/c1cccc(C)c1,inconclusive: 29%
10,CN(C)CCNC(=O)c1cnc(N2CCN(c3ccccn3)CC2)c2ccccc12,inconclusive: 21%
11,COc1cc(/C=C2\C(=O)Nc3ccc(Br)cc32)cc([N+](=O)[O-])c1O,active: 31%
12,COc1cc(N(C)Cc2n[nH]c3c2CCCC3)ncn1,inconclusive: 19%
13,CCCCCOc1ccc(/C=c2\sc3nc(-c4cccnc4)nn3c2=O)cc1,inactive
14,Cn1cnnc1SCC(=O)Nc1ccc(F)c(Cl)c1,inconclusive: 11%
15,O=C(CN1C(=O)/C(=C/c2ccccc2F)Sc2ccccc21)NCc1ccccn1,inconclusive: 19%
16,CC(=O)c1ccc(NC(=O)c2cc(C3CC3)on2)cc1,inactive
17,O=C(NC1CC(=O)N(c2ccc(F)cc2)C1)c1cccs1 (stereo not given),inconclusive: 11%
18,c1ccc(-c2cc(CC3(NCC4CCCCC4)COC3)no2)nc1,inconclusive: 19%
19,COc1ccc(CCN2CCCC(CN(C)CC=C(C)C)C2)cc1 (stereo not given),inconclusive: 18%
20,CN(CCC1CCOCC1)C(=O)C1CCC(=O)N(CCc2cccc(F)c2)C1 (stereo not given),inconclusive: 14%
21,CC1=C[C@@H](CNCc2cccnc2)[C@H](C(C)C)C[C@H]1Cc1nnc(-c2ccccc2F)o1,inconclusive: 10%
22,O=C(COc1ccc(Br)cc1)Nc1ccc(F)cc1,active: 39%
23,O=C1N(CCCN2C(=O)C3(OCCO3)c3ccccc32)c2ccccc2C12OCCO2,inconclusive: 18%
24,O=C1c2sc3nc4n(c(=O)c3c2CCC1Sc1ccccc1)CCCCC4 (stereo not given),inactive

row,SMILES,inhibition
1,CC(=O)Nc1ccc(NC(=O)c2ccc(-c3cccc(Cl)c3Cl)o2)cc1,inconclusive: 23%
2,CN(C)CC1(O)CCN(C(=O)c2cccc3nccnc23)C1 (stereo not given),inconclusive: 11%
3,CC(C)NC(=O)N1CCC(Cn2cc(CN(C)CCO)nn2)CC1,inactive
4,CC(C(=O)N1CCCc2c1c(=O)oc1ccc(OCc3ccccc3)cc21)N1CCCCCC1 (stereo not given),inconclusive: 21%
5,O=C(C1CC1)N1CCc2cc(Br)cc(S(=O)(=O)NCc3ccccn3)c21,inconclusive: 10%
6,OC1(C#CC#CC2(O)CCCCC2)CCCCC1,inactive
7,CCCOc1ccc(C2C(C#N)=C(N)OC3=C2C(=O)CCC3)cc1 (stereo not given),inconclusive: 11%
8,CCn1c2ccccc2c2nnc(-n3nc(C)cc3C)nc21,inactive
9,COc1ccc(/C=C2/SC(=O)N(c3ccc(O)cc3)C2=O)cc1OC,inconclusive: 24%
10,CC(=O)c1c(C)cc(O[C@@H]2O[C@H](CO)[C@@H](O)[C@H](O)[C@H]2O)cc1O,inactive
11,Cn1c(=O)n(C)c2cc(N=Cc3cc(Br)ccc3O)ccc21,active: 31%
12,OCC1(Cc2ccccc2)CCNCC1,inactive
13,O=c1oc(-c2cccs2)cc(-c2ccccc2)c1-c1ccccc1,inconclusive: 28% and inconclusive: 12%
14,Cc1ccc(-c2noc(CCC(=O)N3CCN(c4ccccn4)CC3)n2)cc1,inconclusive: 10%
15,O=C(c1c(F)cccc1F)N1CCN=C1SCc1cccc(Cl)c1,inconclusive: 19%
16,CCN(Cc1noc(C)n1)C(=O)c1ccc2cccc(Cl)c2n1,inconclusive: 15%
17,CC(=O)c1cccc(NC2=NS(=O)(=O)c3ccccc32)c1,inconclusive: 12%
18,NC(=O)c1c(NC(=O)c2cc3ccccc3o2)sc2c1CCCC2,inconclusive: 11%
19,CC1=C(C(=O)Nc2ccccc2C)C(c2cccnc2)n2nc(SCc3ccccc3)nc2N1 (stereo not given),inconclusive: 25%
20,COc1ccc(Cl)cc1N1C(=O)C2CCCN2C1c1cccc(OC)c1OC (stereo not given),inconclusive: 19%
21,COc1ccc(CN2CCC(CCC(=O)Nc3ccccc3Cl)CC2)c(F)c1,inconclusive: 22%
22,O=C(Nc1cccc(O)c1)c1cc2n(n1)C(C(F)(F)F)CC(c1ccc(Cl)cc1)N2 (stereo not given),inconclusive: 17%
23,O=C(C[C@@H]1CCNC[C@@H]1Cc1cc(-c2ccccc2)on1)NCc1ccc(F)cc1,inconclusive: 13%
